Results from patent publication US20190275201A1, “PHOTOPOLYMERIZABLE BONE FILLER MATERIAL” (ECOLE POLYTECHNIQUE FEDERALE DE LAUSANNE (EPFL), priority 2016, published 2019).

Test: Photorheology of photopolymerized bone cement
Conditions: 405 nm; for photopolymerization in photorheology testing: 3.5 mW/cm^2, up to 30 minutes of illumination; for Photopolymerization time: photorheology, 3.5 mW/cm^2, 1000 μm sample

Row | SMILES | photopolymerization in photorheology testing | Photopolymerization time
1 | CC12CCC(C(=O)C1=O)C2(C)C (stereo not drawn) [Camphorquinone] | photopolymerization | 15 min
2 | Cc1cc(C)c(C(=O)P(=O)(C(=O)c2c(C)cc(C)cc2C)c2ccccc2)c(C)c1 [Irgacure 819, Phosphine oxide, phenyl bis (2,4,6-trimethyl benzoyl)] | photopolymerization | 1 min
3 | CC(C)(O)C(=O)c1ccc(OCCO)cc1 [Irgacure 2959, 1-[4-(2-Hydroxyethoxy)-phenyl]-2-hydroxy-2-methyl-1-propane-1-one] | did not polymerize | ∞
